Results on 1 substance are retold here after US4734399A (Hoffmann-La Roche Inc., priority 1986, dated 1988).

This data set in a line: Boc solid-phase peptide synthesis; PAM-resin; DCC; symmetric anhydride procedure. To be noted: whole synthesis, scale 0.21 mmol.

With [Ala^15,Leu^27,Asn^28 ]-GRF(1-32)-OH, the crude mass is on record as 0.524 g.
